Measured values published in article PMC8599755.
These are yes or no findings as the source states them, for the method shown. Binding seen in cells or lysates may run through a third protein. Some results given as binding are weak or reduced against the parent protein; the word gives no strength. Where a sequence is shown, tags or fusion partners need not be part of it.

Target: T1, Flag-RBM6 (UniProt P78332)
T1 sequence: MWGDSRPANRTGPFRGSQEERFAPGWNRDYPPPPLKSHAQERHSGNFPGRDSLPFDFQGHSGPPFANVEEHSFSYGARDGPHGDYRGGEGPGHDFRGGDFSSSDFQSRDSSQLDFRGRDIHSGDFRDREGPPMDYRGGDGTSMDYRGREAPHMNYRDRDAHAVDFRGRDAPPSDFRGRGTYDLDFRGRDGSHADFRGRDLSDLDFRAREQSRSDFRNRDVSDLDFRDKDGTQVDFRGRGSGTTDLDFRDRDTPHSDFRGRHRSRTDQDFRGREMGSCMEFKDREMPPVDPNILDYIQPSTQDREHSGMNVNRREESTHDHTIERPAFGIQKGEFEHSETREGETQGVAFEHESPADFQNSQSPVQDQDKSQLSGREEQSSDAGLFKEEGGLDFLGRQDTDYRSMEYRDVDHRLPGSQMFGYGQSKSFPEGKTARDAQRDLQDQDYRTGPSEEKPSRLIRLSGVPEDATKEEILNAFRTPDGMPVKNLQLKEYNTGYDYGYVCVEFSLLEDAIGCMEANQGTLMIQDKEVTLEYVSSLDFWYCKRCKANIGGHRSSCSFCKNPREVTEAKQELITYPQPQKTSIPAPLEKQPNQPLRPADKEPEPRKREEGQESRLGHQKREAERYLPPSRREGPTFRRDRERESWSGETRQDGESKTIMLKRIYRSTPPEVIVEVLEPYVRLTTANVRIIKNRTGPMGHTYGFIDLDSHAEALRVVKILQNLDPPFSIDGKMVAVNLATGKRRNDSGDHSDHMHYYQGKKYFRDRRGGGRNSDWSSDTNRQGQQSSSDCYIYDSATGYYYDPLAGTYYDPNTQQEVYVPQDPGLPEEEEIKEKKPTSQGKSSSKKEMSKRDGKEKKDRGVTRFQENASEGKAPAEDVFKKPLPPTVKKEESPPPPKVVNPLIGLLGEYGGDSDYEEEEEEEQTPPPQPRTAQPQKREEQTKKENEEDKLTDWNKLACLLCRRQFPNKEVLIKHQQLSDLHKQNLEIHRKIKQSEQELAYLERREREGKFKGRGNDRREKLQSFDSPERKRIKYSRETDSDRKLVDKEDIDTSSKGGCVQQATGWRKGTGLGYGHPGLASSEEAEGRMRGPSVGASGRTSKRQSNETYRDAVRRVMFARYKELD
Assay: co-IP; HCT116 cells co-transfected with Flag-RBM6 and Myc-RNPS1, harvested 36 h later, lysed in NP-40 containing buffer with protease inhibitors; 1.5 mg proteins immunoprecipitated with 1.5 ug flag antibody; western blot

binding: binds
B1: Myc-RNPS1 (protein, UniProt Q15287 1-305)
chain: MDLSGVKKKSLLGVKENNKKSSTRAPSPTKRKDRSDEKSKDRSKDKGATKESSEKDRGRDKTRKRRSASSGSSSTRSRSSSTSSSGSSTSTGSSSGSSSSSASSRSGSSSTSRSSSSSSSSGSPSPSRRRHDNRRRSRSKSKPPKRDEKERKRRSPSPKPTKVHIGRLTRNVTKDHIMEIFSTYGKIKMIDMPVERMHPHLSKGYAYVEFENPDEAEKALKHMDGGQIDGQEITATAVLAPWPRPPPRRFSPPRRMLPPPPMWRRSPPRMRRRSRSPRRRSPVRRRSRSPGRRRHRSRSSSNSSR
